Results are given in words; binding and its absence hold for the method and conditions named. In cells and extracts the contact can be indirect. Some binding calls cover weakened binding; strength is not graded here.
Assays:
[1] = target: FLAG-tagged IFITM3 and Myc-tagged IFITM3 (two differently tagged copies) (human) (UniProt Q01628); experiment: co-IP; anti-FLAG (M2) antibody added to 100 μg of whole-cell lysate of HEK293T cotransfected with IFITM3-FLAG and IFITM3-Myc, alone or with 97ZA Nef-HA; Dynabeads Protein G; immunoblot with anti-FLAG and anti-Myc
SF2 Nef-HA (HIV-1) = SF2 Nef-HA (HIV-1) (UniProt P03407); experiment: co-IP; anti-HA antibody added to 100 μg of whole-cell lysate of cotransfected HEK293T (20 mM Hepes, 150 mM NaCl, 1 mM EDTA, 1% Triton X-100), 1 hour at 4°C, Dynabeads Protein G, washed three times with lysis buffer; immunoblot with anti-HA and anti-IFITM3; Nef-HA is the bait

By UniProt entry, the sequences of proteins in these tests, tags left out.
UniProt Q01628: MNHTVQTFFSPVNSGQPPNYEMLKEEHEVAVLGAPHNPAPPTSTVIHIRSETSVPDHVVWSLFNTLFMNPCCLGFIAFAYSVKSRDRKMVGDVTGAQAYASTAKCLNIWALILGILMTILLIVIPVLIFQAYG
UniProt P03407: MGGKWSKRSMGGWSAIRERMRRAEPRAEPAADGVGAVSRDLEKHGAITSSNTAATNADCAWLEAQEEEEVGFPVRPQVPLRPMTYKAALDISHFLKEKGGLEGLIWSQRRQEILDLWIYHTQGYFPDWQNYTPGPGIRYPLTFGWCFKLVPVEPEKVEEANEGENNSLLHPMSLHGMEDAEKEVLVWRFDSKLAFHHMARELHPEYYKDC

Row | Substance | binding [1] | binding (SF2 Nef-HA (HIV-1))
1 | FLAG-tagged IFITM3 and Myc-tagged IFITM3 (two differently tagged copies) (from UniProt Q01628 1-133) | binds | 
2 | interferon-induced transmembrane protein 3 (IFITM3), human, untagged (from UniProt Q01628 1-133) |  | binds

From article PMC12487890
